Assay results

Data taken from PubChem BioAssay AID1053133, deposited by Broad Institute (2014).

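Vaccinia-infected cells with a two-color viral stage reporter; Venus fluorescence read on a plate reader; the cell line is not named here; timing not stated here. The test concentration is not given here. Percent change in Venus reporter signal; lower (more negative) values mean stronger inhibition of that viral stage.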

Values are in %. The controls that fix the scale are not given here. Common to all entries: measured here: Venus reporter, other viral stage. This is a side read-out of the assay, for part of the compounds, not drawn at random.

{"compound": "CO[C@H]1CN(C)C(=O)c2cc(NC(=O)C3CCC3)ccc2OC[C@@H](C)N(Cc2ccc(F)cc2)C[C@@H]1C", "activity change (Venus) (%)": "-34.37"}
{"compound": "C[C@@H]1CN([C@@H](C)CO)C(=O)Cc2cc(NC(=O)Cc3ccccc3)ccc2O[C@@H]1CN(C)Cc1ccc(Cl)c(Cl)c1", "activity change (Venus) (%)": "-64.18"}
{"compound": "CC(=O)N(C)C[C@H]1Oc2cc(C#Cc3ccccc3F)ccc2S(=O)(=O)N([C@H](C)CO)C[C@H]1C", "activity change (Venus) (%)": "-42.1"}
{"compound": "C[C@@H]1CN([C@H](C)CO)C(=O)c2cc(NC(=O)CCCCCC(=O)Nc3ccccc3N)ccc2O[C@@H]1CN(C)Cc1ccc(Oc2ccccc2)cc1", "activity change (Venus) (%)": "-40.07"}
{"compound": "O=C(C[C@@H]1C=C[C@@H](NS(=O)(=O)c2ccc(F)cc2)[C@H](CO)O1)N1CCC(Cc2ccccc2)CC1", "activity change (Venus) (%)": "-28.9"}
{"compound": "C[C@@H]1CCCCO[C@@H](CN(C)C(=O)NC2CCCCC2)[C@H](C)CN([C@@H](C)CO)C(=O)c2cc(NS(=O)(=O)c3ccc(Cl)cc3)ccc2O1", "activity change (Venus) (%)": "-32.17"}
{"compound": "C[C@H](CO)N1C[C@H](C)[C@H](CN(C)S(=O)(=O)c2cccs2)Oc2c(NC(=O)Nc3ccc(C(F)(F)F)cc3)cccc2C1=O", "activity change (Venus) (%)": "-62.28"}
{"compound": "C[C@@H]1CN([C@@H](C)CO)C(=O)Cc2cc(NS(=O)(=O)c3ccccc3)ccc2O[C@@H]1CN(C)Cc1ccc(Cl)c(Cl)c1", "activity change (Venus) (%)": "-43.36"}
{"compound": "C[C@H]1CN([C@@H](C)CO)C(=O)Cc2cc(NC(=O)Cc3cn(C)c4ccccc34)ccc2O[C@@H]1CN(C)Cc1ccc(Cl)c(Cl)c1", "activity change (Venus) (%)": "-39.8"}
{"compound": "C[C@@H]1CN([C@H](C)CO)C(=O)c2cc(-c3ccc(F)cc3)cnc2O[C@@H]1CN(C)CC1CCCC1", "activity change (Venus) (%)": "-24.42"}
{"compound": "C[C@H](CO)N1C[C@H](C)[C@@H](CN(C)CC2CCCCC2)Oc2ccc(NS(=O)(=O)c3ccc(F)cc3)cc2CC1=O", "activity change (Venus) (%)": "-54.11"}
{"compound": "Cc1ccccc1-c1ccc([C@H]2[C@H](CO)N3CCCCN(C(=O)Nc4ccccc4)C[C@@H]23)cc1", "activity change (Venus) (%)": "-63.99"}
{"compound": "C[C@H](CO)N1C[C@H](C)[C@@H](CN(C)S(=O)(=O)c2ccc([N+](=O)[O-])cc2)OCc2ccccc2-c2ccccc2C1=O", "activity change (Venus) (%)": "-45.3"}
{"compound": "C#Cc1ccc([C@H]2C=C(C(=O)NCc3ccccc3)O[C@@H](OCC)[C@@H]2CCCO)cc1", "activity change (Venus) (%)": "-28.68"}
{"compound": "COc1cccc(CN2C[C@@H]3N[C@H](C2)C3c2ccc(-c3ccccc3F)cc2)c1", "stereo": "stereo partly shown", "activity change (Venus) (%)": "-52.72"}
{"compound": "C[C@H]1CN([C@@H](C)CO)C(=O)c2cc(/C=C/c3ccccc3)cnc2O[C@H]1CN(C)C(=O)c1ccc2c(c1)OCO2", "activity change (Venus) (%)": "-17.46"}
{"compound": "C[C@H]1CCCCO[C@H](CN(C)C(=O)C2CCCCC2)[C@@H](C)CN([C@@H](C)CO)C(=O)c2cc(NC(=O)Nc3ccc4c(c3)OCO4)ccc2O1", "activity change (Venus) (%)": "-35.17"}
{"compound": "Cc1cccc(-c2ccc([C@@H]3[C@H](CO)N4CCCCN(Cc5ccncc5)C[C@@H]34)cc2)c1", "activity change (Venus) (%)": "-42.28"}
{"compound": "N#C[C@@H]1[C@H](c2ccc(C#CC3CCCC3)cc2)[C@@H](CO)N1S(=O)(=O)c1ccccc1", "activity change (Venus) (%)": "-43.08"}
{"compound": "Cc1ccc(S(=O)(=O)N(C)C[C@H]2OCc3ccccc3-c3c(n(C)c4ccccc34)C(=O)N([C@H](C)CO)C[C@H]2C)cc1", "activity change (Venus) (%)": "-62"}
{"compound": "C[C@@H]1CCCCO[C@H](CN(C)Cc2ccccc2)[C@H](C)CN([C@@H](C)CO)C(=O)c2cc(NS(=O)(=O)c3ccc(Cl)cc3)ccc2O1", "activity change (Venus) (%)": "-75.18"}
{"compound": "C[C@@H]1CN([C@@H](C)CO)S(=O)(=O)c2ccc(-c3cccc(F)c3)cc2O[C@@H]1CN(C)C(=O)c1cccc(F)c1", "activity change (Venus) (%)": "-29.88"}
{"compound": "C[C@@H]1CN([C@H](C)CO)C(=O)c2cc(NC(=O)CCC(F)(F)F)ccc2O[C@@H](C)CCCCO[C@H]1CN(C)S(=O)(=O)c1ccc(Cl)cc1", "activity change (Venus) (%)": "-22.48"}
{"compound": "C[C@H](CO)N1C[C@H](C)[C@@H](CN(C)Cc2ccc(Cl)c(Cl)c2)Oc2c(NC(=O)c3ccc(-c4nccs4)cc3)cccc2C1=O", "activity change (Venus) (%)": "-72.53"}
{"compound": "C[C@H](CO)N1C[C@H](C)[C@H](CN(C)S(=O)(=O)c2ccc(F)cc2)Oc2c(NC(=O)c3ccc(-c4nccs4)cc3)cccc2C1=O", "activity change (Venus) (%)": "-12.84"}
{"compound": "COc1ccc([Si](C)(C)[C@@H]2[C@@H](CCn3cc(CCO)nn3)O[C@]3(C(=O)N(Cc4ccc(N5CCOC5=O)cc4)c4ccccc43)[C@H]2C)cc1", "activity change (Venus) (%)": "-65.91"}
{"compound": "C[C@@H]1CCCCO[C@H](CN(C)Cc2ccc(C(F)(F)F)cc2)[C@@H](C)CN([C@@H](C)CO)C(=O)c2cc(NC(=O)CCCN(C)C)ccc2O1", "activity change (Venus) (%)": "-76.79"}

2 of the entries, repeated:

* C[C@@H]1CN([C@@H](C)CO)C(=O)Cc2cc(NS(=O)(=O)c3ccccc3)ccc2O[C@@H]1CN(C)Cc1ccc(Cl)c(Cl)c1 : activity change (Venus) -43.36%
* O=C(C[C@@H]1C=C[C@@H](NS(=O)(=O)c2ccc(F)cc2)[C@H](CO)O1)N1CCC(Cc2ccccc2)CC1 : activity change (Venus) -28.9%